Data: US7381537B2 (Probiodrug AG, priority 2003, dated 2008)

How the values were obtained:
[1] = general procedure: Fmoc solid-phase peptide synthesis; Rink amide MBHA; TBTU/base (DIPEA or NMM); HATU/DIPEA for difficult couplings; settings: whole synthesis, scale of the general procedure 0.5 mmol, 25 μmol for longer peptides
[2] = general procedure: Fmoc solid-phase peptide synthesis; Rink amide MBHA; HMBA-AM; TBTU/base (DIPEA or NMM); HATU/DIPEA for difficult couplings; settings: whole synthesis, scale of the general procedure 0.5 mmol, 25 μmol for longer peptides

With H-Gln-Lys(Gln)-Arg-Leu-Ala-NH2 the crude yield [1] was 95% yield.
E(NHNH2)SPTA-NH2 gave a crude yield [2] of 76% yield.

Ends that are not written are not given here. * marks the point of attachment. NHNH2 = NN*
